# Source: patent US20230346820A1, “METHODS AND COMPOSITIONS FOR THE TREATMENT OF SARS-COV-2” (priority 2020, published 2023)
# Structures can show the parent of a compound that is named as a salt.
# Tests used:
# SARS-CoV-2 [1] = tested on: SARS-CoV-2
# SARS-CoV-2 [2] = experiment: microbe, parasite or virus in culture; conditions: Severe acute respiratory syndrome coronavirus 2, HeLa-ACE2, 24 h, read-out: CoV-2 EC50 [μM] (Geomeans, n ≥ 2)
# HeLa-ACE2 cells = experiment: cells; type: cell-based; conditions: Homo sapiens, HeLa-ACE2, read-out: HeLa-ACE-2 EC50 [μM] (Geomeans, n ≥ 2)
compound,measurement,setting,value
CN1C[C@@H]2c3ccccc3Oc3ccc(Cl)cc3[C@H]2C1 (racemic) [Asenapine maleate],HeLa-ACE2 CC50/CoV-2 EC50,SARS-CoV-2 [1],> 14.68
same,EC50,SARS-CoV-2 [2],> 2.43 µM
same,EC50,HeLa-ACE2 cells,> 9.6 µM
